This assay is described as follows: qHTS Assay for Lipid Storage Modulators in Drosophila S3 Cells.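 On cell number change: cells counted by Cell Tracker Red CMTPX staining in the red channel.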 Particulars: BODIPY lipid droplet fluorescence, 18-24 h; for cell number change: measured here: cell count max response, cells fed with added oleic acid. The essentials:
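Laser-scanning cytometry quantifies lipid droplet accumulation (500–530 nm total intensity; droplet/cell object ratio) in oleic acid-fed (400 uM added) Drosophila S3 cells treated with a concentration series. 20 uM Triacsin C defined 100% inhibition.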
(In general: In qHTS, concentration-response curves come from the screen itself.)

The mark [1] stands for this setting: measured here: lipid fluorescence (Fed channel) AC50, cells fed with added oleic acid.
Where [2] appears, read: measured here: cell number channel AC50, cells fed with added oleic acid.

Some of the results follow. The main result of the screen is listed elsewhere. These columns were measured beside it and carry no call. The list favours compounds with an active or inconclusive main result. The note in brackets gives the kind of curve behind each potency; many fits are weak.

For orientation: AC50 means the concentration at which the activity in the assay is half-maximal.

In the case of `COc1cccc(/C(O)=C2/C(=O)C(=O)N(CCN(C)C)C2c2ccc(Br)cc2)c1` (configuration not stated), the AC50 under setting [1] is 2.06 µM [falling, partial curve].

As for `CC(C)Oc1ccc(C(=O)Nc2ccc(N3CCCCC3)cc2)cc1`, the cell number change was found to be 4.31%.

Regarding `CCOCCn1c(COc2ccc(C)cc2)nc2ccccc21`, the cell number change is -15.9%. In addition, the AC50 under setting [1] is 7.31 µM [rising, partial curve].

Regarding `O=C(Nc1ncn[nH]1)c1ccccc1Br`, the cell number change is -29.9%. The AC50 under setting [1] is 0.517 µM [falling, full curve].

`COC(=O)c1ccccc1OCCCN(C)C`: the cell number change was -4%.

Take `Cc1csc2nc(CCNS(=O)(=O)c3ccc4c(c3)OCCO4)cn12`: the cell number change came to 3.55%. Further, under setting [1], the AC50 is 11.6 µM [rising, single point].

With `BrC(=C\c1ccccc1)/C=N/N1CCN(Cc2ccccc2)CC1`, the cell number change amounted to 113%. Moreover, the AC50 under setting [2] was 25.9 µM [rising, single point]. The AC50 under setting [1] was 5.17 µM [rising, single point].

For `COc1ccc(NC(=O)C2C3C=CC4(CN(Cc5cccnc5)C(=O)C24)O3)c(OC)c1` (configuration not stated), the cell number change was 45.2%. For the same molecule, the half-maximal activity concentration (AC50) under setting [2] was 0.731 µM [rising, partial curve, poor fit]. Moreover, the AC50 under setting [1] is 11.6 µM [rising, partial curve].

As for `CCC(=O)N1CCc2cc(S(=O)(=O)NCCC(=O)N3CCN(Cc4ccccc4)CC3)ccc21`, the cell number change is -7.73%. Further, under setting [1], the AC50 was 2.31 µM [rising, partial curve].

For `COc1ccc(OCC(=O)Nc2c(C(=O)N3CCN(C)CC3)oc3ccccc23)cc1`, the cell number change is -18.8%. Also, under setting [1], the AC50 is 11.6 µM [rising, partial curve].

Regarding `O=c1[nH][nH]c(C(F)(F)F)c1C=NCc1ccccc1Cl`, the cell number change was -0.724%.

Turning to `CC(C)CCN1CC(C(=O)N2CCN(c3ccc(F)cc3)CC2)CC1=O` (configuration not stated), the cell number change was 178%. Moreover, the AC50 under setting [2] is 29.1 µM [rising, single point].

In the case of `CCCCN(CC)C(=O)c1cc2cc3ccc(Cl)cc3nc2o1`, the cell number change is 30.6%. In addition, under setting [2], the AC50 was 2.91 µM [rising, single point]. Moreover, the AC50 under setting [1] was 2.06 µM [rising, full curve].

As for `NC(=O)N(CCC(=O)O)c1ccccc1`, the cell number change was -31.3%. Further, the AC50 under setting [2] is 1.3 µM [falling, full curve, poor fit]. Under setting [1], the AC50 is 4.61 µM [falling, full curve].

`CCOc1ccccc1-c1nc(-c2cc3ccc(C)cc3[nH]c2=O)no1`: the cell number change was -62.4%. The AC50 under setting [2] was 18.4 µM [falling, single point]. Under setting [1], the AC50 was 25.9 µM [falling, single point].

In the case of `CCc1nnc(NC(=O)CSc2nnc(COc3ccc(C#N)cc3)n2-c2ccccc2)s1`, the cell number change is -7.01%. For the same molecule, the AC50 under setting [1] was 3.66 µM [rising, single point].

As for `Cc1nn(CC(=O)NCCCN2C(C)CCCC2C)c(=O)c2cc3occc3n12` (configuration not stated), the cell number change was -7.96%. Also, under setting [2], the AC50 was 0.92 µM [falling, full curve].

On to `COC(=O)c1ccc2nc(NC(=O)CN3C(=O)CCC3=O)sc2c1`, for which the cell number change is -37.1%. Besides, the AC50 under setting [2] was 32.6 µM [falling, partial curve]. Moreover, the AC50 under setting [1] is 29.1 µM [falling, single point].

Take `COc1ccc(-c2cccc(NS(=O)(=O)c3cc([N+](=O)[O-])ccc3C)c2)nn1`: under setting [2], the AC50 is 1.46 µM [rising, partial curve].

In the case of `C=CCOc1ccc(CN(C)CC(=O)Nc2ccccc2[N+](=O)[O-])cc1`, the cell number change turned out to be 32.9%. Also, the AC50 under setting [1] was 29.1 µM [rising, partial curve, poor fit].

`O=c1[nH]c(SCc2ccc(Cl)cc2)nc2[nH]ncc12`: the cell number change came out at 19%. Also, the AC50 under setting [1] was 6.51 µM [rising, single point].

Regarding `CC(C)c1nnc(NC(=O)c2nc(S(=O)(=O)Cc3ccc(F)cc3)ncc2Cl)s1`, the AC50 is, setting by setting: under setting [2], 6.51 µM [falling, single point]; under setting [1], 4.11 µM [falling, single point].

Take `Cc1ccccc1N1CCN(C2=NC(=O)/C(=C/c3cn[nH]c3-c3ccccc3)S2)CC1`: the cell number change was found to be 1.27%.

Turning to `COCCn1nnnc1C(c1ccc(OC)c(OC)c1)N1CCc2ccccc21` (configuration not stated), the cell number change amounted to 10.9%. The AC50 under setting [1] is 5.17 µM [rising, partial curve].

Consider `O=[N+]([O-])c1cccc(Nc2c3ccccc3nc3ccccc23)c1`, for which the cell number change is -18%. The AC50 under setting [1] was 32.6 µM [falling, single point].

With `CC1(C)C(=O)Nc2ccccc2N1C(=O)COc1cc(Cl)ccc1Cl`, the cell number change worked out at 5.23%.

As to `Cc1nc(SC(C(N)=O)c2ccccc2)c(C#N)c(C)c1C` (configuration not stated), the cell number change was 16.5%.

Take `COc1ccc(C(C)C)cc1S(=O)(=O)NCc1ccccn1`: the cell number change was -0.712%. Under setting [1], the AC50 was 0.103 µM [falling, single point].

For `CCCCCCCCCCn1c2c(c(=N)c3c1CCC3)CCC2`, the cell number change is -82.6%. The AC50 under setting [2] is 6.51 µM [falling, partial curve, poor fit].

As to `CC1=CC(=O)C=C(C)C1=NOS(=O)(=O)c1ccccc1`, the cell number change is -139%. The AC50 under setting [2] was 11.6 µM [falling, partial curve]. Moreover, the AC50 under setting [1] is 9.2 µM [falling, partial curve].

Consider `Cc1ccc(NC(=O)COC(=O)c2cc(Cl)ccc2[N+](=O)[O-])c(C)c1`, for which the cell number change stood at 9.67%.

On to `O=C(COc1cccc2c1CCNC2=O)Nc1cccc(F)c1`, for which the cell number change was -2.21%.

As for `CC(C(=O)O)N1C(=O)c2cccc3cccc1c23` (configuration not stated), the cell number change was -16.2%. Also, the AC50 under setting [1] is 18.4 µM [falling, partial curve].

Turning to `CN1C/C(=C\c2ccc(N3CCOCC3)cc2)C(=O)/C(=C/c2ccc(N3CCOCC3)cc2)C1`, the concentration at half-maximal activity (AC50) under setting [1] is 11.6 µM [falling, partial curve].

With `Cc1ccnc(NC(=O)c2ccc(S(=O)(=O)NCc3ccco3)cc2)c1`, the cell number change is 28.9%. For the same molecule, under setting [1], the AC50 is 2.91 µM [rising, full curve].

Turning to `NC(=O)Cn1c2[n+](c3ccccc31)CC(O)CS2` (configuration not stated), the cell number change was -101%. Further, the AC50 under setting [2] was 29.1 µM [falling, partial curve].

On to `C=CCNC(=O)c1c2c(nc3ccccc13)-c1ccccc1CC2`, for which the cell number change is 13.2%.

Regarding `CCc1nc2ccccc2n1Cc1ccc(F)cc1`, the cell number change was 3.3%. Further, under setting [1], the AC50 is 4.61 µM [falling, single point].

For `CCCCCCC(=O)N(O)C1CC(=O)N(c2ccc(Cl)cc2)C1=O` (configuration not stated), the cell number change is -59.7%. Further, under setting [2], the AC50 is 20.6 µM [falling, single point]. Also, the AC50 under setting [1] was 16.4 µM [falling, single point].

Consider `Cc1cccc(CS(=O)(=O)c2ncc(Cl)c(C(=O)Nc3ccc(F)cc3)n2)c1`, for which the cell number change turned out to be 19.8%. For the same molecule, the half-maximal activity concentration (AC50) under setting [2] is 6.51 µM [falling, single point]. The AC50 under setting [1] is 0.58 µM [falling, single point].

For the origin of these results see PubChem BioAssay AID2685 (National Center for Advancing Translational Sciences (NCATS), 2010).
